# PubChem BioAssay AID493014 (National Center for Advancing Translational Sciences (NCATS), 2011)
# In all, about 340,000 compounds went through this assay and about 170 (0.05%) were called active. The shares of active, inactive and inconclusive entries below differ from those in the screen. The call rests on the fitted dose curve; in most records, active means well fitted inhibition curve with a large enough effect in the signal ratio, with a control signal flat (not every such curve was filed as active); inconclusive means small, poorly fitted or top-dose-only effect, or effect the other way, or a change in a side signal; inactive means flat fitted curve, though single readings scatter; the % refers to the signal ratio. Potencies beside an inconclusive call are fits to weak or partial responses and may not hold up.
# Assay: qHTS Assay to Find Inhibitors of Chronic Active B-Cell Receptor Signaling;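 on activity change, negative = inhibition: plate controls were basal doxycycline-induced cells for no effect and cells given 10 µM MG132 for full effect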
# Conditions: ABC-DLBCL IkBa-CBG/CBR reporter, luminescence ratio (green luciferase fused to IkBa over red control in TMD8 lymphoma cells), 4 h; activity change, negative = inhibition: at 46.1 µM (top of the series)
# Method in brief: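 TMD8 human ABC-DLBCL cells with doxycycline-inducible IκBα–green luciferase fusion and unfused red luciferase, in 0.5% FBS medium; compounds up to 46 uM, 4 h at 37C. Green/red luminescence ratio, filter-overlap corrected, fitted to concentration-response curves.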
# Potency means the concentration at half of the fitted maximal effect.
SMILES,"activity change, negative = inhibition",Potency
O=C(COC(=O)c1cccc(N2C(=O)C3CC=CCC3C2=O)c1)c1ccccc1 (stereo not given),inconclusive: -20.4%,–
Cc1cc(C)c2c(c1)OC(=O)CC2c1ccccc1C (stereo not given),–,"inconclusive: 23.1 µM [rising, partial curve, poor fit]"
Cc1cc2n(n1)SC(Nc1cc(Cl)ccc1Cl)N2 (stereo not given),inconclusive: -18.3%,–
O=C(Nc1nc2ccccc2[nH]1)c1ccccc1[N+](=O)[O-],inconclusive: -11.9%,–
CCOC(=O)Cc1csc(SCC(=O)N(CC(C)C)c2c(N)n(Cc3ccccc3)c(=O)[nH]c2=O)n1,–,"inconclusive: 2.31 µM [falling, partial curve]"
O=C(N/N=C/c1cccnc1)c1ccc2c(c1)OCCO2,inconclusive: 2.13%,–
O=C(CN1CCCCCC1)Nc1ccc(S(=O)(=O)N2CCCCC2)cc1,inconclusive: -16.9%,–
COC(=O)c1sccc1NC(=O)CC1C(=O)NCCN1C(=O)Nc1ccc(OCc2ccccc2)cc1 (stereo not given),inconclusive: -21.1%,–
COCCCNC(=O)C1CCN(S(=O)(=O)c2ccc3nc4c(c(C(=O)O)c3c2)CCCCC4)CC1,inactive,–
Cc1cccc(N2CCN(S(=O)(=O)c3ccc4c(c3)CCN4C(=O)CCC(=O)O)CC2)c1C,inconclusive: 3.29%,–
CCN(CC)S(=O)(=O)c1ccc(NC(=O)COC(=O)c2ccc(NC(=O)CC#N)cc2)cc1,inconclusive: -12.5%,–
COc1cccc(OCC(=O)O/N=C(\N)c2ccc(OC)c(OC)c2)c1,inactive,–
CCOc1ccccc1C(=O)NCC(=O)N1CCC(C)CC1,–,"inconclusive: 25.9 µM [falling, single point]"
Cc1c(N=C2N=C(NC(=O)Nc3ccc(Cl)cc3)c3ccccc32)c(=O)n(-c2ccccc2)n1C,inconclusive: 9.36%,–
O=S(=O)(Nc1ccc(-c2ccc3nncn3n2)cc1)c1ccccc1Cl,–,"inconclusive: 23.1 µM [falling, single point]"
CCSc1sccc1C1C(C#N)=C(N)N(c2cccnc2)C2=C1C(=O)CCC2 (stereo not given),inconclusive: 7.63%,–
CCN(CC)CCN1CCn2c3c(c4cc(C)ccc42)CCCC31 (stereo not given),inconclusive: -7.2%,–
Cc1cccc(OCC(=O)Nc2ccccc2N2CCCCC2)c1C,inconclusive: 23.6%,–
COc1ccc(-c2[nH]n(-c3ccc([N+](=O)[O-])cc3)c(=O)c2C=NCCN2CCNCC2)cc1,inconclusive: 278%,–
COC1C=CC(CNC(=O)c2cc3c(=O)n4cccc(C)c4nc3n2C)(OC)O1 (stereo not given),inconclusive: 13.7%,–
Cc1cccc(C)c1NC(=O)C[n+]1cc(-c2ccccc2)n2c1CCC2,inactive,–
COCCn1c(C2CCCCC2)nc2sc3ccccc3c(=O)c2c1=O,inconclusive: 5.23%,–
CNc1nc(-c2ccccn2)nnc1-c1ccccc1,–,"inconclusive: 20.6 µM [falling, single point]"
O=C(N/N=C/C1=C(N2CCOCC2)C(=C\c2ccccc2)/CC1)Nc1ccccc1,inactive,–
Cc1cccc(C(=O)Nc2ccc(C(=O)/C=C/c3cccs3)cc2)c1,inconclusive: -5.57%,–
O=C(Nc1ccc(S(=O)(=O)N2CCCC2)cc1)c1ccc(Br)o1,inconclusive: -1.12%,–
Cc1ccccc1NS(=O)(=O)c1cccc(-c2nnc(-c3ccccc3)o2)c1,inactive,–

# An excerpt of these results, with bars between the fields:
SMILES | activity change, negative = inhibition | Potency
COCCCNC(=O)C1CCN(S(=O)(=O)c2ccc3nc4c(c(C(=O)O)c3c2)CCCCC4)CC1 | inactive | –
Cc1cccc(N2CCN(S(=O)(=O)c3ccc4c(c3)CCN4C(=O)CCC(=O)O)CC2)c1C | inconclusive: 3.29% | –

# (next part)

SMILES,"activity change, negative = inhibition",Potency
CCOC(=O)c1c(-c2ccc(F)cc2)csc1NC(=O)CN1C(=O)NC2(CCCCC2C)C1=O (stereo not given),inactive,–
CC(C)Cc1nc2oc3c(NCCCN4CCOCC4)ncnc3c2c2c1CCC2,inactive,–
O=c1oc(Nc2ccccc2Cl)nc2ccccc12,inconclusive: 293%,–
CC(=O)N1CCN(C(=O)Nc2cccc(C(F)(F)F)c2)CC1,inconclusive: 7.04%,–
COc1ccc(C2C(C(=O)Nc3ccccc3OC)=C(C)Nc3nnnn32)c(OC)c1 (stereo not given),inconclusive: -20%,–
COc1ccc(NC(=O)c2ccc3snnc3c2)cc1,–,"inconclusive: 9.2 µM [falling, partial curve]"
COCCN1CCn2c(nc3cc(NC(=O)c4ccc(OC)cc4)ccc32)C1,inactive,–
O=C(CSc1cccc[n+]1[O-])c1cc2ccccc2o1,–,"inconclusive: 28.2 µM [falling, single point]"
Cc1ccc(Cl)cc1NC(=O)c1cnn2c(C(F)F)cc(-c3ccccc3)nc12,inconclusive: 12.9%,–
O=C(Nc1ccccc1C(=O)N/N=C/c1ccc(F)cc1)c1ccccc1Br,inconclusive: 21.9%,–
O=C(CN1C2=NCCCN2c2ccccc21)c1ccc(Cl)cc1Cl,inconclusive: -17.3%,–
Cc1cc(NC(=O)CCCN2C(=O)/C(=C/c3cccs3)SC2=S)no1,–,"inconclusive: 18.4 µM [falling, partial curve]"
O=S(=O)(c1ccc(Cl)c(NC(=S)N/N=C/c2ccc(O)cc2)c1)N1CCOCC1,–,"inconclusive: 16.4 µM [falling, single point]"
O=C(CSc1nnc(-c2cccs2)o1)N1CCCCC1,–,"inconclusive: 20.6 µM [falling, partial curve]"
O=C(NCc1ccco1)c1ccc(Cn2c(=O)c3ccccc3n(Cc3ccc(Cl)cc3)c2=O)cc1,inconclusive: 0.142%,–
Cc1ccc(S(=O)(=O)CCC(=O)Nc2nnc(-c3ccc(F)cc3)o2)cc1,inactive,–
O=C(Nc1ccccc1)c1cn2ccccc2n1,inconclusive: 225%,–
Brc1ccc(CNCCCSc2ncccn2)cc1,inactive,–
COc1cc(Cn2c(=O)c3c(OC)c(C)cnc3n(C)c2=O)cc(OC)c1,inactive,–
OCCNc1ncnc2c1c(-c1ccccc1)c(-c1ccccc1)n2Cc1ccco1,–,"inconclusive: 20.6 µM [falling, single point]"
C=CCSc1n[nH]c(-c2ccccc2)n1,inconclusive: 3.12%,–
O=C(c1cc2c(s1)-c1ccccc1OC2)N1CCc2ccccc2C1,inconclusive: 4.41%,–
CN1C(C(=O)NCC2CC2)CC2Cn3c(nc4cc(Cl)c(Cl)cc43)C21 (stereo not given),inconclusive: -0.906%,–
O=C(Cn1nnc(-c2ccccc2)n1)N1CCN(c2ccc(F)cc2)CC1,inconclusive: 4.6%,–
Cc1ccccc1C(=O)Nc1nc(SCc2ccc(Cl)cc2)n[nH]1,inconclusive: -1.88%,–
O=C(NC1CC1)c1ccc2c(c1)ncn2C1CCCC1,–,"inconclusive: 25.1 µM [falling, partial curve]"
CCC(C)c1ccc2oc(-c3ccc(NC(=O)Cn4cnc5c(=O)n(C)c(=O)n(C)c54)cc3)nc2c1 (stereo not given),inactive,–

SMILES,"activity change, negative = inhibition",Potency
O=C(CN1CCN(c2ccc(F)cc2)CC1)Nc1cccnc1Cl,inconclusive: -24.4%,–
O=C(Nc1nccs1)c1ccc(COc2ccccc2Cl)o1,–,"inconclusive: 5.62 µM [rising, single point]"
Cc1csc(NC(=O)c2ccc(C(=O)Nc3nc(C)cs3)cc2)n1,inconclusive: -2%,–
CCOc1cc(/C=N/NC(N)=O)ccc1OCC(=O)Nc1ccc(C)c(C)c1,inconclusive: -16.7%,–
O=C(CC(Nc1ccc(F)cc1)C(=O)O)c1ccccc1 (stereo not given),inconclusive: -11.9%,–
CCc1cccc(NC(=O)C2CCCN2S(=O)(=O)c2ccc3c(c2)n(C)c(=O)c(=O)n3C)c1 (stereo not given),inconclusive: 4.26%,–
Cc1c(C(=O)O)sc2nc(-c3cccs3)cc(C(F)(F)F)c12,inactive,–
Cc1ccccc1N(CC(=O)NC(C)(C)C)C(=O)CCC(=O)Nc1nccs1,inconclusive: 3.41%,–
Nc1ccccc1C#CC(=O)c1ccccc1,–,"inconclusive: 10 µM [falling, partial curve, poor fit]"
COc1ccc(S(=O)(=O)NC2CC(C)(C)NC(C)(C)C2)c(C)c1C,inconclusive: 1.57%,–
CNc1snc(C)c1C(=O)OC(C)C(=O)Nc1cccc(C)c1 (stereo not given),inactive,–
CCOC(=O)C1CCCN(C(=O)CN2C(=O)c3ccccc3S2(=O)=O)C1 (stereo not given),inconclusive: 5.83%,–
CCc1nc(C)c(C(=O)N2CCCC(C(=O)Nc3cccc(-c4cccc(C)c4)c3)C2)o1 (stereo not given),–,"inconclusive: 11.2 µM [falling, partial curve, poor fit]"
CCOC(=O)N1CCN(C(=O)c2ccc3nc(N4CCC(C)CC4)sc3c2)CC1,–,"inconclusive: 17.8 µM [falling, partial curve, poor fit]"
NC(N)=NC1=NC(=O)/C(=C/c2ccccc2-n2cccn2)S1,–,"inconclusive: 22.4 µM [falling, single point]"
CC(C)CN(C)C(=O)CCc1nnc(Cc2cccc(C(F)(F)F)c2)o1,inactive,–
COc1ccc(C2NC(=S)N(c3ccccc3)C(C)=C2C(=O)Nc2ccccc2)cc1 (stereo not given),–,"inconclusive: 13 µM [falling, partial curve, poor fit]"
Cc1noc(C)c1CSCC(=O)Nc1ccc(S(=O)(=O)C(F)F)cc1,inactive,–
CCN(CC(=O)Nc1ccc(OC)cc1)C(=O)c1oc2c(Cl)cccc2c1C,inactive,–
O=C(O)/C=C/C(=O)N1CCN(C(=O)/C=C/C(=O)O)CC1,inactive,–
CCc1nnc(NS(=O)(=O)c2ccc(N=Cc3c(C)[nH]n(-c4cccc(Cl)c4)c3=O)cc2)s1,–,"inconclusive: 0.366 µM [rising, full curve, poor fit]"
CCn1c2ccccc2c2nnc(SCC(=O)NCc3cccs3)nc21,inconclusive: 9.71%,–
CCCN(CCC)CCCNC(=O)c1cc2c(=O)n(CC)c3ccccc3c2s1,inactive,–
N#CC1(C#N)C(c2ccccc2)OC23CCCCC2C1(C#N)C(=N)O3 (stereo not given),inconclusive: -0.455%,–
FC(F)Oc1ccc(/C=N/N2CCCCC2)c(OC(F)F)c1,inconclusive: 4.68%,–
O=C(NCCc1ccc(Cl)cc1)c1ccc2nccnc2c1,inconclusive: -1.71%,–

# An excerpt of the results above:
SMILES,"activity change, negative = inhibition",Potency
O=C(CC(Nc1ccc(F)cc1)C(=O)O)c1ccccc1 (stereo not given),inconclusive: -11.9%,–
CCc1cccc(NC(=O)C2CCCN2S(=O)(=O)c2ccc3c(c2)n(C)c(=O)c(=O)n3C)c1 (stereo not given),inconclusive: 4.26%,–
Cc1c(C(=O)O)sc2nc(-c3cccs3)cc(C(F)(F)F)c12,inactive,–
Cc1ccccc1N(CC(=O)NC(C)(C)C)C(=O)CCC(=O)Nc1nccs1,inconclusive: 3.41%,–
